Measured values published in US20060009379A1.
Results are given in words; binding and its absence hold for the method and conditions named. Binding seen in cells or lysates may run through a third protein. Some results given as binding are weak or reduced against the parent protein; the word gives no strength. For some of these results: Tags and fused reporters may be left off the sequences shown.

B1: GST-raNS (GST fusion of rat nucleostemin) (protein, not shown: a dimerising Fc or GST)
chain: MKRPKLKKASKRMTCHKRYKIQKKVREHHRKLRKEAKKRGHKKPKKDPGVPNSAPFKEALLREAELRKQQLEELKQQQKLDRQKEQERKRKLEISPDDEQSNVETQEESDEPKIKKAKSGKQNPKKLHCQELKKVIEASDIVLEVLDARDPLGCRCPQVEEAVIQSGCKKLVLVLNKSDLVPKENLENWLTYLNKELPTVVFKASTNLKNRKKTFKIKKKVVPFQSKLCCGKEALWKLLGGFQQSCGKGVQVGVVGFPNVGKSSIINSLKQERICSVGVSMGLTRSMQIVPLDKQITIIDSPCFIISPCNSPAALALRSPASIEVLRPLEAASAILSQADSQQVVLKYTVPGYKDSLDFFTKLAQRRGLHQKGGSPNVESAAKLLWSEWTGASLGYYCHPPASWNHSPHFNENITAIMKRGFNLEELEKNNAHSIQVLKGPHLTNKILFRSSGLTNGILEEKDIPEESPKQTEDQQDGDDQEHVTGEKNAEISDVTPVEETREMSPGQSTASKPSDRSFILDKMSEEDDAYDFTTDYI
B2: rat nucleostemin (raNS), wild type (protein)
chain: MKRPKLKKASKRMTCHKRYKIQKKVREHHRKLRKEAKKRGHKKPKKDPGVPNSAPFKEALLREAELRKQQLEELKQQQKLDRQKEQERKRKLEISPDDEQSNVETQEESDEPKIKKAKSGKQNPKKLHCQELKKVIEASDIVLEVLDARDPLGCRCPQVEEAVIQSGCKKLVLVLNKSDLVPKENLENWLTYLNKELPTVVFKASTNLKNRKKTFKIKKKVVPFQSKLCCGKEALWKLLGGFQQSCGKGVQVGVVGFPNVGKSSIINSLKQERICSVGVSMGLTRSMQIVPLDKQITIIDSPCFIISPCNSPAALALRSPASIEVLRPLEAASAILSQADSQQVVLKYTVPGYKDSLDFFTKLAQRRGLHQKGGSPNVESAAKLLWSEWTGASLGYYCHPPASWNHSPHFNENITAIMKRGFNLEELEKNNAHSIQVLKGPHLTNKILFRSSGLTNGILEEKDIPEESPKQTEDQQDGDDQEHVTGEKNAEISDVTPVEETREMSPGQSTASKPSDRSFILDKMSEEDDAYDFTTDYI

Experiments:
[1] = molecular target: p53 (full-length), from 293 cell lysate (UniProt P04637); test: GST-raNS pull-down from cell lysate, Western blot
[2] = molecular target: p53 (full-length), from 293 cell lysate (UniProt P04637); test: GST pull-down, Western blot (FIG. 6E left upper panel)
GST-p53 fusion protein [3] = molecular target: GST-p53 fusion protein (UniProt P04637); test: GST-p53 pull-down, Western blot (FIG. 6E left lower panel)
GST-p53 fusion protein [4] = molecular target: GST-p53 fusion protein (UniProt P04637); test: GST-p53 pull-down from cell lysate, Western blot

Binder | binding [1] | binding [2] | binding (GST-p53 fusion protein [3]) | binding (GST-p53 fusion protein [4])
B1 | binds | binds | – | –
B2 | – | – | binds | binds
